Results published in PubChem BioAssay AID540276 (National Center for Advancing Translational Sciences (NCATS), 2011).
Where “and” joins values, the source holds several entries; their conditions need not be identical. Equal values may be shown once. About 5,400 (1.8%) of roughly 300,000 compounds were called active. The shares of active, inactive and inconclusive entries below differ from those in the screen. Calls come from the whole dose curve; tested in HEK293 cells. Potencies beside an inconclusive call are fits to weak or partial responses and may not hold up. Where a structure was tested more than once in an assay, its records may differ in their call.
% is set by controls: 0 for no effect and ±100 for the full control effect; potency is the fitted concentration of half-maximal effect.

Experiment: qHTS for inhibitors of binding or entry into cells for Marburg Virus
Details: Marburg virus pseudotyped entry inhibition, cell reporter; activity change, negative = inhibition: at 37.8 µM (top of the series) unless noted
With `Oc1cc2c(cc1O)CN(C(=S)NCCc1ccc(Cl)cc1)CCC2` the Potency was “inactive and active: 355 nM”.
For `O=C(Nc1nc2ccccc2s1)C1c2ccccc2Oc2ccccc21`, the Potency was inconclusive: 35.5 µM [inhibitor, single point].
With `Cc1ccc(Cn2nc(C)c(NC(=O)c3cc(-c4ccc5c(c4)OCO5)on3)c2C)cc1` the Potency was inconclusive: 3.66 µM [inhibitor, single point].
For `O=C(COC(=O)c1ccc(Cl)c(S(=O)(=O)N2CCN(c3ccc(F)cc3)CC2)c1)Nc1cccc(Cl)c1`, the Potency was inconclusive: 31.6 µM [inhibitor, single point].
With `CN(C)S(=O)(=O)c1ccc(Cl)c(NC(=O)COC(=O)CCSc2ccccc2)c1` the Potency was inconclusive: 35.5 µM [activator, single point].
In the case of `CC(C)N(Cc1nc(-c2ccc(Cl)cc2)no1)Cc1nccn1C`, the Potency is reported as inconclusive: 1.78 µM [activator, partial curve, poor fit].
For `C=CCOc1ccc(C(=O)c2ccccc2)c(OCC(=O)NC2(C#N)CCCC2)c1`, the Potency was inconclusive: 35.5 µM [inhibitor, single point].
In the case of `COc1cc(C2NC(=O)NC(c3ccccc3)=C2C(C)=O)c(Cl)cc1OCC(=O)O` (centres undefined), the Potency is reported as inconclusive: 6.31 µM [inhibitor, single point].
With `Cc1noc(C)c1/C=N/Nc1ccccn1` the “activity change, negative = inhibition” value was inactive: 13.5% [at 46.1 µM].
With `COc1ccc(-c2nc(-c3ccccc3)c(NC(C)(C)C)o2)cc1` the Potency was inconclusive: 841 nM [activator, single point] and inconclusive: 1.19 µM [inhibitor, single point].
In the case of `CCCNC1=C(C)C(=O)C2=C(C1=O)C(COC(N)=O)[C@]1(OC)C3NC3CN21` (some centres undefined), the Potency is reported as active: 6.31 µM.
With `CCCCCC(=O)O[C@]1(C(C)=O)CC[C@H]2[C@@H]3CCC4=CC(=O)CC[C@]4(C)[C@H]3CC[C@@]21C` the Potency was active: 10.3 µM.
In the case of `CC(=O)c1ccc(N2CCN(C(=O)CNS(=O)(=O)c3ccc4c(c3)OCCCO4)CC2)c(F)c1`, the Potency is reported as inconclusive: 35.5 µM [activator, single point].
In the case of `O=C(CSc1nnc(-c2cccnc2)n1-c1ccccc1)NCc1ccc2c(c1)OCO2`, the “activity change, negative = inhibition” value is reported as inactive: 12.3% [at 46.1 µM].
With `CCCCOc1ccc(C2=NC(c3ccncc3)=Nc3ccc(Br)cc3N2)cc1` the “activity change, negative = inhibition” value was inactive: -17.8% [at 46.1 µM].
For `CCCC(=O)Nc1ccc(Cl)c(NC(=O)c2cccnc2Cl)c1`, the “activity change, negative = inhibition” value was inactive: -0.344%.
For `CC(OC(=O)c1ccc(-c2ccc([N+](=O)[O-])cc2)o1)C(=O)NC(N)=O` (centres undefined), the “activity change, negative = inhibition” value was inactive: 7.57% [at 46.1 µM].
With `CCC(Sc1nc(C)cc(C)n1)C(=O)Nc1cc(C)on1` (centres undefined) the “activity change, negative = inhibition” value was inactive: 5.34% [at 46.1 µM].
In the case of `CCC1(c2ccccc2)NC(=S)N(c2ccc(C)cc2)N1` (centres undefined), the Potency is reported as inconclusive: 3.55 µM [activator, full curve, poor fit].
For `CC(=O)c1ccc(NC(=O)c2ccc(NC(=O)c3ccco3)cc2)cc1`, the “activity change, negative = inhibition” value was inactive: 2.63% [at 46.1 µM].
In the case of `CCCc1cc(N2CCN(c3ccccn3)CC2)n2nc(C)c(-c3ccccc3)c2n1`, the Potency is reported as inconclusive: 1.83 µM [inhibitor, partial curve, poor fit].
With `CCOCCCNC(=O)/C(C#N)=C/c1ccc([N+](=O)[O-])o1` the Potency was inconclusive: 22.4 µM [inhibitor, single point].
With `Cc1ccc(-c2nc3ccc(Cl)cn3c2Nc2ccc3c(c2)OCCO3)o1` the Potency was inconclusive: 5.62 µM [activator, full curve].
For `O=[N+]([O-])c1ccc(O)c(N=Cc2sc3ccccc3c2O)c1`, the Potency was inconclusive: 35.5 µM [inhibitor, single point].
In the case of `COc1ccc(NC(=O)NNC(=O)COc2ccc3cc(Br)ccc3c2)cc1`, the “activity change, negative = inhibition” value is reported as inactive: 18.5%.
For `CC(Sc1ccc2ccccc2n1)C(=O)O` (centres undefined), the Potency was inconclusive: 0.891 µM [activator, single point].
With `COc1cc2cc(C(=O)N/N=C/c3cccc(OC)c3OC)[nH]c2cc1OC` the Potency was inconclusive: 15.8 µM [inhibitor, single point].
For `CCc1cccc(CC)c1NC(=O)Cn1nnc2sc(-c3ccccc3)cc2c1=O`, the “activity change, negative = inhibition” value was inactive: 11.2% [at 46.1 µM].
With `O=C(O)[C@@H]1CCCCN1S(=O)(=O)c1cccc2nsnc12` the Potency was inconclusive: 2.51 µM [activator, full curve, poor fit].
In the case of `CCOc1ccc(CN(Cc2ccco2)C(c2cccs2)c2nnnn2C(C)(C)C)cc1` (centres undefined), the Potency is reported as inconclusive: 20 µM [inhibitor, single point].
With `COCCOC(=O)c1c(C)nc(SCC(=O)Nc2cccc3ccccc23)c(C#N)c1-c1ccco1` the Potency was inconclusive: 9.2 µM [inhibitor, partial curve, poor fit].
With `Cc1cc(C)n2c(SCC(=O)Nc3ccc(F)cc3F)nnc2n1` the Potency was inconclusive: 0.794 µM [inhibitor, partial curve, poor fit].
In the case of `CCCn1c(=O)c2c(nc3n2CCCN3CCc2ccccc2)n(C)c1=O`, the Potency is reported as inconclusive: 8.91 µM [inhibitor, partial curve, poor fit].
In the case of `CC(=O)N1CCc2cc(S(=O)(=O)NCCC(=O)Nc3cccc(C)c3C)ccc21`, the “activity change, negative = inhibition” value is reported as inactive: 8.01% [at 46.1 µM].
With `CNC(=S)Nc1cccc(S(=O)(=O)NCc2ccco2)c1` the “activity change, negative = inhibition” value was inactive: 3.18%.
With `OC(COc1ccccc1)CN1CCCCCC1` (centres undefined) the Potency was inconclusive: 12.6 µM [inhibitor, single point].
With `COc1ccc(NC(=O)CSc2nc(C3CC3)nc3ccccc23)cc1` the Potency was inconclusive: 14.1 µM [inhibitor, partial curve, poor fit].
With `CCOc1ccc(C(C)=O)cc1COC(=O)C1=COCCO1` the “activity change, negative = inhibition” value was inactive: 16.5%.
For `O=C(/C=C/c1ccco1)NC(=S)Nc1nc(-c2ccc(Cl)cc2)cs1`, the Potency was inconclusive: 0.891 µM [inhibitor, full curve, poor fit].
For `Cc1onc(-c2ccccc2)c1CNS(=O)(=O)c1cccc(Cl)c1`, the “activity change, negative = inhibition” value was inactive: 15.3%.
In the case of `Clc1ncnc2scc(C3COc4ccccc4O3)c12` (centres undefined), the “activity change, negative = inhibition” value is reported as inactive: -6.21%.
With `C=CCSC1=C(C#N)C(c2ccccc2OC)CC(=O)N1` (centres undefined) the Potency was inconclusive: 25.1 µM [inhibitor, single point].
With `Cc1ccc(CCNc2ncnc(Cl)c2N)cc1` the Potency was inconclusive: 7.08 µM [inhibitor, partial curve].
In the case of `CCN1CCN(Cc2cc(=O)oc3cc(C)cc(C)c23)CC1`, the Potency is reported as inconclusive: 1.64 µM [inhibitor, partial curve, poor fit].
With `CCCCN(C)C1CCN(C(=S)Nc2cccc(OC)c2)CC1` the “activity change, negative = inhibition” value was inactive: -27.9% [at 46.1 µM].
With `CCOC(=O)c1ccc(NC(=O)[C@@H](NC(N)=O)C(C)C)cc1` the Potency was inconclusive: 1.58 µM [activator, single point].
With `CCOC(=O)Cc1csc(NC(=O)c2sc3nc4cc(C)ccc4cc3c2N)n1` the Potency was inconclusive: 22.4 µM [inhibitor, single point].
With `Cc1cc(OCC(O)CNC(C)(C)C)ccc1Cl` (centres undefined) the Potency was inconclusive: 17.8 µM [inhibitor, partial curve, poor fit].
With `COc1ccc(C(C(=O)NCc2ccccc2)N(Cc2ccco2)C(=O)c2snc(C(N)=O)c2N)cc1OC` (centres undefined) the “activity change, negative = inhibition” value was inactive: -0.401% [at 46.1 µM].
With `O=C(CCC(=O)N1CCN(c2ccccc2F)CC1)N1CCN(c2ccc(F)cc2)CC1` the “activity change, negative = inhibition” value was inactive: -2.24%.
In the case of `CC(NC(=O)c1ccccc1Cl)C(=O)N1CCN(Cc2ccc3c(c2)OCO3)CC1` (centres undefined), the “activity change, negative = inhibition” value is reported as inactive: 4.41%.
For `CCCCc1nc2c(c3c1C[C@H](C)OC3)CN(S(=O)(=O)CCCC)CC2`, the Potency was “inactive”.
In the case of `COC(=O)c1c(NC(=O)CN2C(=O)NC3(CCc4ccccc4C3)C2=O)sc2c1CCCCC2` (centres undefined), the Potency is reported as inconclusive: 15.8 µM [inhibitor, single point].
In the case of `CCn1nnnc1SCC(=O)N1N=C(c2cccs2)CC1c1cccs1` (centres undefined), the “activity change, negative = inhibition” value is reported as inactive: 9.77%.
In the case of `N#C/C(=C/c1ccc(N2CCOCC2)o1)c1nc2ccccc2[nH]1`, the Potency is reported as inconclusive: 12.6 µM [inhibitor, partial curve, poor fit].
For `O=C(O)C1CC1C(=O)N1CCN(c2ccc(Cl)c(Cl)c2)CC1` (centres undefined), the Potency was inconclusive: 17.8 µM [activator, single point].
In the case of `Cn1c(CN2CCOCC2)nnc1SCC(=O)Nc1cc(Cl)ccc1Cl`, the Potency is reported as inconclusive: 31.6 µM [activator, single point].
In the case of `O=C(c1ccccc1)N1CCN(S(=O)(=O)c2cccc(NS(=O)(=O)c3ccccc3)c2)CC1`, the activity change, negative = inhibition is reported as inconclusive: 13.7% [activator] [at 46.1 µM].
For `C/C(=N\O)c1ccc2c3ccccc3n(C)c2c1`, the “activity change, negative = inhibition” value was inactive: 11.5%.
With `CC1=NN(c2ccccc2)C(=O)/C1=C\c1cc(C)n(-c2cccnc2)c1C` the “activity change, negative = inhibition” value was inactive: 6.99%.
With `COc1cc2c(cc1NC(=O)CSc1ccc(C)cc1)oc1ccccc12` the Potency was inconclusive: 20.6 µM [inhibitor, single point].
For `O=C(CNC(=O)c1ccccc1)OCc1cccc([N+](=O)[O-])c1`, the Potency was inconclusive: 15.8 µM [activator, single point].
In the case of `COc1ccc(/C=C(/C(=O)c2cccs2)N2C=CC=CC2=C(C#N)C#N)cc1`, the “activity change, negative = inhibition” value is reported as inactive: -1.14%.
For `Cc1ccc(-c2noc(-c3ccc(N4CCCCC4)c([N+](=O)[O-])c3)n2)cc1`, the Potency was inconclusive: 8.91 µM [activator, partial curve].
In the case of `O=C(COC(=O)C1CC(=O)N(Cc2ccco2)C1)c1ccc(OC(=O)c2ccccc2)cc1` (centres undefined), the Potency is reported as inconclusive: 31.6 µM [activator, single point].
For `COc1ccc(OC)c(S(=O)(=O)Nc2ccc3c(c2)C(=O)OC3)c1`, the Potency was inconclusive: 15.8 µM [inhibitor, single point].
In the case of `C/C(=N\NC(=O)c1ccc(F)cc1)c1ccc(NC(=O)Cc2ccccc2)cc1`, the “activity change, negative = inhibition” value is reported as inactive: -17.6%.
For `O=C(N/N=C/c1ccncc1)/C(=C/c1ccccc1)NC(=O)c1ccccc1`, the Potency was inconclusive: 6.51 µM [inhibitor, single point].
In the case of `CN1CCN(c2ncccc2S(=O)(=O)N2CCCCC2)CC1`, the Potency is reported as inconclusive: 35.5 µM [activator, single point].
